Results published in US20100209467A1.
These are yes or no findings as the source states them, for the method shown. Some binding calls cover weakened binding; strength is not graded here.

Protein sequences, listed by entry. Tags and fused reporters are not part of them. Residues count along the entry.
UniProt P36894, residues 24-152: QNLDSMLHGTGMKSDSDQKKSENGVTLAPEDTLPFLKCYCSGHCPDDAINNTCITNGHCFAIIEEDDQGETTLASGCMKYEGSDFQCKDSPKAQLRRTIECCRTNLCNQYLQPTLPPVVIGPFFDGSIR

Assays:
[1] = target: ALK-3 (BMP receptor Type I/IA; BMPR-I/IA) (UniProt P36894); test: radioligand receptor binding assay, competition with 125I-BMP-7 on immobilised receptor (FIG. 1)
[2] = target: ALK-3 (BMP receptor Type I/IA; BMPR-I/IA) (UniProt P36894); test: radioligand receptor binding assay, competition with 125I-BMP-7 on immobilised receptor (FIG. 1, 15)

For CYFDDSSNVLCKKYRS [TDFRP compound (SEQ ID NO:45)], the binding [1] was “binds” and the binding [2] was “binds”.
